Data as given in PubChem BioAssay AID652243 (Drosophila RNAi Screening Center, 2013)

Assay: 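Fly regulators of androgen-dependent reporter output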 (primary screen)
Cells: Drosophila S2R+ cells
Knock-down reagent: long dsRNA against Drosophila genes
Timing: 72 h (48 h, then 24 h hormone)
Challenge: synthetic androgen R1881 at 10 nM for 24 h
Detection: 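Firefly light from an androgen-responsive reporter and Renilla control light per well, raw and unnormalised, for each of two replicates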
Scale: firefly reporter light: higher = more light from androgen-responsive reporter; Renilla control light: higher = more constitutive control signal (cell number, transfection)
Active means: 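Hit when the log firefly-to-Renilla ratio dropped or increased by a fixed fold versus the mean of GFP or LacZ controls across duplicate plates; lowering cut given as 1.5 and as 3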
Meaning of the calls: active = hit: reporter lowered or raised; inactive = no hit
The deposit covers about 24,000 reagents; below is an unselected part of those that have a named target and a result. Over the whole deposit, 246 (1%) got an active call. 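Plates not normalised; calls are printed but the firefly/Renilla ratio behind them is not deposited; fold cut for lowering reported inconsistently.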 Raw values are not corrected between plates. Reagents against one gene are numbered here. Names joined by + are all predicted targets of the reagent. Not stated in the record: the amount of reagent.

target gene	reagent	firefly reporter light, replicate 1	firefly reporter light, replicate 2	Renilla control light, replicate 1	Renilla control light, replicate 2	Outcome
Osi22 (GeneID 41632)	1	62658	65372	1.58e6	1.65e6	inactive
Osi22 (GeneID 41632)	2	2.71e5	3.05e5	5.75e5	6.69e5	inactive
CG32726 (GeneID 318175)	1	7.80e5	6.18e5	1.04e6	8.04e5	inactive
Obp19b (GeneID 33038)	1	3.65e5	2.03e5	1.26e6	5.28e5	inactive
Obp19b (GeneID 33038)	2	6.30e5	6.40e5	1.64e6	1.58e6	inactive
CG13972 (GeneID 43307)	1	2.14e5	2.00e5	1.92e6	2.68e6	inactive
CG13972 (GeneID 43307)	2	3.26e5	3.48e5	4.00e5	8.13e5	inactive
CG11373 (GeneID 50152)	1	87779	96879	1.30e6	1.10e6	inactive
CG2061 (GeneID 32042)	1	1.03e5	1.12e5	7.59e5	7.44e5	inactive
CG30259 (GeneID 37606)	1	3.67e5	3.68e5	2.34e6	1.96e6	inactive
CG30259 (GeneID 37606)	2	3.29e5	3.98e5	2.12e6	2.53e6	inactive
dpr11 (GeneID 40800)	1	78084	1.02e5	1.93e6	1.94e6	inactive
dpr11 (GeneID 40800)	2	59473	70437	1.36e6	1.05e6	inactive
dpr11 (GeneID 40800)	3	62554	92854	1.39e6	1.47e6	inactive
ND-MNLL (GeneID 31697)	1	2.28e5	2.54e5	1.87e6	2.42e6	inactive
Svip (GeneID 317834)	1	1.59e5	1.37e5	4.26e5	5.89e5	inactive
Svip (GeneID 317834)	2	4.66e5	4.08e5	1.45e6	1.27e6	inactive
CG34269 (GeneID 5740713)	1	1.13e6	1.02e6	1.86e6	1.81e6	inactive
Egfr (GeneID 37455)	1	2.88e5	3.06e5	6.13e5	2.21e5	inactive
Egfr (GeneID 37455)	2	9.33e5	5.26e5	2.52e6	1.70e6	inactive
Egfr (GeneID 37455)	3					inactive
Egfr (GeneID 37455)	4					inactive
CG32318 + Klp61F + Psf1	1	2.24e5	2.54e5	3.68e5	3.77e5	inactive
side (GeneID 43300)	1	6.45e5	8.57e5	1.77e6	2.21e6	inactive
side (GeneID 43300)	2	2.39e5	2.18e5	2.53e6	2.48e6	inactive
side (GeneID 43300)	3	2.27e5	1.60e5	2.22e6	2.91e6	inactive
side (GeneID 43300)	4	2.12e5	2.50e5	1.39e6	3.10e6	inactive
side (GeneID 43300)	5	2.02e5	2.01e5	2.44e6	2.98e6	inactive
l(3)04053 (GeneID 46158)	1	2.57e5	2.88e5	2.20e6	2.18e6	inactive
ppk29 (GeneID 37844)	1	4.36e5	3.56e5	2.09e6	1.76e6	inactive
CG2736 (GeneID 37998)	1	7.35e5	7.25e5	1.30e6	1.65e6	inactive
Snap25 (GeneID 3355084)	1	2.38e5	2.64e5	6.26e5	4.47e5	inactive
Snap25 (GeneID 3355084)	2	7.10e5	7.42e5	1.41e6	1.35e6	inactive
MsR2 (GeneID 38296)	1	1.16e5	1.93e5	2.91e6	2.79e6	inactive
MsR2 (GeneID 38296)	2	75710	1.13e5	7.69e5	1.05e6	inactive
MsR2 (GeneID 38296)	3	4.68e5	7.14e5	5.88e5	7.25e5	inactive
MsR2 (GeneID 38296)	4	5.20e5	3.33e5	6.80e5	4.80e5	inactive
JhI-21 (GeneID 34624)	1	5.05e5	6.51e5	1.39e6	2.07e6	inactive
JhI-21 (GeneID 34624)	2	5.08e5	3.66e5	1.53e6	1.64e6	inactive
ND-B14.5AL (GeneID 40477)	1	2.19e5	2.30e5	2.75e6	2.73e6	inactive
ND-B14.5AL (GeneID 40477)	2	3.43e5	3.63e5	1.10e6	1.22e6	inactive

An excerpt from above, showing only “firefly reporter light, replicate 1”:
CG13972 (GeneID 43307) #1	2.14e5
CG13972 (GeneID 43307) #2	3.26e5
CG11373 (GeneID 50152)	87779
CG2061 (GeneID 32042)	1.03e5
CG30259 (GeneID 37606) #1	3.67e5
CG30259 (GeneID 37606) #2	3.29e5
dpr11 (GeneID 40800) #1	78084
